At least one structure is not confirmed: it was looked up by name or label, or the drawing left a doubt.
Assays:
N2a cells = test: MTT proliferation assay, rapamycin mediated cell growth inhibition of N2a cells; format: cell-based, mouse; conditions: 1 μM of rapamycin
Excerpt: FIG. 7 illustrates sensitivity of the N2a cell line to the growth inhibitory effect of rapamycin.
In a preferred embodiment, an MTT proliferation assay (see, e.g., van de Loosdrechet, et al., 1994, J. Immunol. Methods 174: 311-320; Ohno et al., 1991, J. Immunol. Methods 145:199-203; Ferrari et al., 1990, J. Immunol. Methods 131: 165-172; Alley et al., 1988, Cancer Res. 48: 589-601; Carmichael et al., 1987, Cancer Res. 47:936-942; Gerlier et al., 1986, J. Immunol. Methods 65:55-63; Mosmann, 1983, J. Immunological Methods 65:55-63) is used to screen for a candidate agent in conjunction with rapamycin to inhibit the growth of rapamycin resistant cells. The cells are treated with chosen concentrations of the candidate agent and rapamycin for 4 to 72 hours. The cells are then incubated with a suitable amount of 3-(4,5-dimethylthiazol-2-yl)-2,5-diphenyltetrazolium bromide (MTT) for 1-8 hours such that viable cells convert MTT into an intracellular deposit of insoluble formazan. After removing the excess MTT contained in the supernatant, a suitable MTT solvent, e.g., a DMSO solution, is added to dissolved the formazan. The concentration of […], which is proportional to the number of viable cells, is then measured by determining the optical density at […]. […]

[1] = test system: RapR7 clone (murine N2a cell overexpressing RapR7 gene); test: MTT proliferation assay, rapamycin resistance of RHKO RapR7 clone in the presence and absence of doxcycline; format: cell-based, mouse; conditions: knockout construct expressed vs suppressed by doxcycline, FIGS. 8A-8B

## CO[C@H]1C[C@@H]2CC[C@@H](C)[C@@](O)(O2)C(=O)C(=O)N2CCCC[C@H]2C(=O)O[C@H]([C@H](C)C[C@@H]2CC[C@@H](O)[C@H](OC)C2)CC(=O)[C@H](C)/C=C(\C)[C@@H](O)[C@@H](OC)C(=O)[C@H](C)C[C@H](C)/C=C/C=C/C=C/1C [rapamycin, 9,10,12,13,14,21,22,23,24,25,26,27,32,33,34,34a-hexadecahydro-9,27-dihydroxy-3-[2-(4-hydroxy-3-methoxycyclohexyl)-1-methylethyl]-10,21-dimethoxy-6,8,12,14,20,26-hexamethyl-23,27-epoxy-3H-pyrido[2,1-c][1,4]oxaazacyclohentricontine-1,5,11,28,29(4H,6H,31H)-pentone]
N2a cells
  effect of rapamycin on N2a cells: all N2a cells were either killed or growth-inhibited
[1]
  inhibition by rapamycin in RapR7 clone: reversible inhibition

From patent US20060240021A1, “Mammalian genes involved in rapamycin resistance and tumorgenesis: rapr7 genes” (priority 2002, published 2006)
